We go through twelve molecules from PubChem BioAssay AID248 (DTP/NCI, 2004).

The list does not hold the whole screen: it is rich in T/C values a quarter to a half above the control, in often repeated tests (any T/C) and in doses without a T/C. Further doses and runs are listed elsewhere. T/C gives the treated animals as a percentage of the vehicle group. Some entries give survivors of the animals treated and no T/C: the source holds a T/C of zero for them, seemingly a mark for toxic or unscored doses. Some doses without a T/C left all or most animals alive at the check, yet need not have been tolerated: the source hardly ever lists a survival T/C far under the control, and the zero likely stands for such cases as well. Survivors were counted at the toxicity check, usually on the fifth day, unless a day is given; later deaths do not show. Schedule codes are those of the source, taken here to give the interval after Q, in days (D) or hours (H), and the number of doses after X. Some molecules as drawn cover several salts, stereoisomers or complexes of the source; a dose is that of the sample tested. Some entries were tested several times; their values stand side by side, smallest first. Where survival is the endpoint, this PubChem deposit counts one and a half times the control or more as active, and values a quarter to a half above the control carry no call in these data; other NCI protocols may use other cut-offs. Some T/C values are followed by the survivors on the day toxicity was checked, most often the fifth; where none is given, no animal had died by that day.

This assay deals with L1210 leukemia ip in BDF1 mice, survival T/C. The assay is described as follows: NCI In Vivo Anticancer Drug Screen. Data for tumor model L1210 Leukemia (intraperitoneal) in B6D2F1 (BDF1) mice. To be noted: T/C endpoint: mean survival time, higher T/C = longer survival.
[1] abbreviates: dose: 400.0 mg/kg/injection, schedule: Q01DX009 (ip), vehicle: saline with Tween-80.
Where [2] appears, read: dose: 400.0 mg/kg/injection, schedule: Q04DX003 (ip), vehicle: Klucel (hydroxypropylcellulose) (HPC).
Setting [3] is: dose: 200.0 mg/kg/injection, schedule: Q04DX003 (ip), vehicle: saline.
The mark [4] stands for this setting: dose: 32.0 mg/kg/injection, schedule: Q01DX009 (ip), vehicle: saline.
Where [5] appears, read: dose: 75.0 mg/kg/injection, schedule: Q01DX001 (ip), vehicle: saline.
Where [6] appears, read: dose: 150.0 mg/kg/injection, schedule: Q01DX001 (ip), vehicle: saline.
Where [7] appears, read: dose: 300.0 mg/kg/injection, schedule: Q01DX001 (ip), vehicle: saline.
Setting [8] is: dose: 400.0 mg/kg/injection, schedule: Q01DX001 (ip), vehicle: saline.
Where [9] appears, read: dose: 200.0 mg/kg/injection, schedule: Q01DX009 (ip), vehicle: saline with Tween-80.

`CCCCN(CCCC)C(=O)C1C=C2c3cccc4[nH]cc(c34)CC2N(C#N)C1` (stereo not given): under setting [1], the survivor count is given as 6 of 6.
`C=CCc1ccc(OCCOCCNC2CC(C)CCC2C(C)C)c(OC)c1` (stereo not given): the survivor count runs as follows: (dose: 200.0 mg/kg/injection, schedule: Q04DX003 (ip), vehicle: Klucel (hydroxypropylcellulose) (HPC)) 0 of 6; under setting [2], 0 of 6.
As for `CCCCCCCCCCCCCCCC(=O)N(CCCN)CCCN(CCCN)C(=O)CCCCCCCCCCCCCCC`, the survivor count under setting [3] was 3 of 6 and the survivor count (dose: 400.0 mg/kg/injection, schedule: Q04DX003 (ip), vehicle: saline) is given as 0 of 6.
In the case of `CCCCOC(=O)c1[nH]cnc1/N=N\N(C)C`, the T/C (dose: 42.0 mg/kg/injection, schedule: Q01DX015 (ip), vehicle: other) is 132 % of control; the T/C (dose: 80.0 mg/kg/injection, schedule: Q01DX009 (ip), vehicle: carboxymethylcellulose (CMC)) was 127 and 131 % of control; the T/C (dose: 176.0 mg/kg/injection, schedule: Q01DX001 (ip), vehicle: carboxymethylcellulose (CMC)) was 125 % of control; the T/C (dose: 200.0 mg/kg/injection, schedule: Q01DX001 (ip), vehicle: other) was 125 % of control; the T/C (dose: 268.0 mg/kg/injection, schedule: Q01DX001 (ip), vehicle: carboxymethylcellulose (CMC)) was 129 % of control; the T/C (dose: 400.0 mg/kg/injection, schedule: Q01DX001 (ip), vehicle: carboxymethylcellulose (CMC)) was 135 % of control. The T/C was 144 % of control (dose: 400.0 mg/kg/injection, schedule: Q01DX001 (ip), vehicle: other) and 125 % of control (dose: 600.0 mg/kg/injection, schedule: Q01DX001 (ip), vehicle: carboxymethylcellulose (CMC)). In addition, the survivor count is, setting by setting: (dose: 160.0 mg/kg/injection, schedule: Q01DX009 (ip), vehicle: carboxymethylcellulose (CMC)) 6 of 6; (dose: 200.0 mg/kg/injection, schedule: Q01DX015 (ip), vehicle: other) 6 of 6; (dose: 320.0 mg/kg/injection, schedule: Q01DX009 (ip), vehicle: carboxymethylcellulose (CMC)) 4 of 6.
In the case of `CN(C)CCCN1c2ccccc2Sc2ccc(Cl)cc21`, the T/C was 127 % of control [5 of 6 alive] (dose: 6.25 mg/kg/injection, schedule: Q01DX009 (ip), vehicle: saline); 126 % of control (dose: 16.0 mg/kg/injection, schedule: Q01DX009 (ip), vehicle: saline); 134 % of control under setting [4]; 128 % of control (dose: 37.5 mg/kg/injection, schedule: Q01DX001 (ip), vehicle: saline); 131 % of control (dose: 40.0 mg/kg/injection, schedule: Q04DX003 (ip), vehicle: saline); 148 % of control (dose: 50.0 mg/kg/injection, schedule: Q04DX003 (ip), vehicle: saline). Besides, the T/C runs as follows: under setting [5], 128 % of control; under setting [6], 131 % of control [5 of 6 alive]. In addition, the survivor count (dose: 6.25 mg/kg/injection, schedule: Q04DX024 (oral), vehicle: saline) is reported as 0 of 6; the survivor count (dose: 12.5 mg/kg/injection, schedule: Q04DX024 (oral), vehicle: saline) is given as 0 of 6; the survivor count (dose: 25.0 mg/kg/injection, schedule: Q01DX009 (ip), vehicle: saline) was 6 of 6; the survivor count under setting [4] is listed as 1 of 6; the survivor count (dose: 40.0 mg/kg/injection, schedule: Q01DX009 (ip), vehicle: saline) is on record as 3 of 6; the survivor count (dose: 50.0 mg/kg/injection, schedule: Q01DX009 (ip), vehicle: saline) is 3 of 6. Besides, the survivor count runs as follows: (dose: 60.0 mg/kg/injection, schedule: Q04DX003 (ip), vehicle: saline) 5 of 6; under setting [5], 0 of 6; (dose: 75.0 mg/kg/injection, schedule: Q01DX009 (ip), vehicle: saline) 4 of 6; (dose: 80.0 mg/kg/injection, schedule: Q01DX009 (ip), vehicle: saline) 0 of 6; (dose: 80.0 mg/kg/injection, schedule: Q04DX003 (ip), vehicle: saline) 4 of 6; (dose: 100.0 mg/kg/injection, schedule: Q01DX001 (ip), vehicle: saline) 0 of 6. For the same molecule, the survivor count (dose: 100.0 mg/kg/injection, schedule: Q01DX009 (ip), vehicle: saline) was 0 of 6; the survivor count (dose: 100.0 mg/kg/injection, schedule: Q04DX003 (ip), vehicle: saline with Tween-80) is 3 of 6; the survivor count (dose: 100.0 mg/kg/injection, schedule: Q04DX003 (ip), vehicle: saline) was 2 of 4; the survivor count (dose: 115.0 mg/kg/injection, schedule: Q04DX003 (ip), vehicle: saline) is 0 of 6; the survivor count (dose: 120.0 mg/kg/injection, schedule: Q01DX015 (ip), vehicle: saline) was 0 of 6; the survivor count (dose: 135.0 mg/kg/injection, schedule: Q01DX015 (ip), vehicle: saline) was 2 of 6. Besides, the survivor count under setting [6] was 0 of 6; the survivor count (dose: 160.0 mg/kg/injection, schedule: Q01DX009 (ip), vehicle: saline) is 0 of 6; the survivor count (dose: 170.0 mg/kg/injection, schedule: Q04DX003 (ip), vehicle: saline) was 0 of 6; the survivor count (dose: 200.0 mg/kg/injection, schedule: Q01DX001 (ip), vehicle: saline) was 0 of 6; the survivor count (dose: 200.0 mg/kg/injection, schedule: Q01DX009 (ip), vehicle: saline) is recorded as 0 of 6; the survivor count (dose: 200.0 mg/kg/injection, schedule: Q01DX015 (ip), vehicle: saline) is 0 of 6. In addition, the survivor count is, setting by setting: (dose: 200.0 mg/kg/injection, schedule: Q04DX003 (ip), vehicle: saline with Tween-80) 1 of 6; under setting [3], 2 of 6; (dose: 240.0 mg/kg/injection, schedule: Q01DX015 (ip), vehicle: saline) 0 of 6; under setting [7], 0 of 6 and 1 of 6; (dose: 320.0 mg/kg/injection, schedule: Q01DX009 (ip), vehicle: saline) 0 of 6; under setting [8], 0 of 6. Further, the survivor count (dose: 400.0 mg/kg/injection, schedule: Q01DX009 (ip), vehicle: saline) is listed as 0 of 6; the survivor count (dose: 400.0 mg/kg/injection, schedule: Q04DX003 (ip), vehicle: saline with Tween-80) is reported as 0 of 6; the survivor count (dose: 480.0 mg/kg/injection, schedule: Q01DX015 (ip), vehicle: saline) was 0 of 6.
As for `CC[N+](C)(CC)CCNC(c1ccc(OC)c(OC)c1)C(Cl)(Cl)Cl` (stereo not given), the survivor count by setting is: under setting [6], 3 of 6; under setting [7], 0 of 6.
For `NOCc1nnc(Nc2ccccc2)s1`, the survivor count under setting [1] is reported as 5 of 6.
`CCn1c(C)[n+](CC)c2cc(Cl)c([N+](=O)[O-])cc21`: the survivor count reads like this: (dose: 100.0 mg/kg/injection, schedule: Q01DX009 (ip), vehicle: saline with Tween-80) 0 of 6; under setting [9], 0 of 6; under setting [1], 0 of 6.
As for `O=C1C=Cc2cccc3cccc1c23`, the survivor count under setting [2] is 1 of 6.
For the molecule `O=[N+]([O-])c1ccc(OS(=O)(=O)CS(=O)(=O)Oc2ccc([N+](=O)[O-])cc2)cc1`, under setting [8], the survivor count is recorded as 1 of 6.
On to `CC1CCCNC1C` (stereo not given), for which the survivor count under setting [9] was 0 of 6 and the survivor count under setting [1] was 0 of 6.
As for `C[C@]12CC[C@@H]3c4cc([N+]#N)c([O-])cc4CC[C@H]3[C@@H]1CCC2=O`, the survivor count (dose: 100.0 mg/kg/injection, schedule: Q01DX009 (ip), vehicle: Klucel (hydroxypropylcellulose) (HPC)) is 0 of 6; the survivor count (dose: 200.0 mg/kg/injection, schedule: Q04DX002 (ip), vehicle: Klucel (hydroxypropylcellulose) (HPC)) is 2 of 3; the survivor count (dose: 400.0 mg/kg/injection, schedule: Q04DX002 (ip), vehicle: Klucel (hydroxypropylcellulose) (HPC)) is on record as 0 of 3.
